{"source": "PubChem BioAssay AID686938 | Drosophila RNAi Screening Center, 2013", "test": "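Looking for CRAC channel components and the factors controlling them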 (primary screen)", "system": "Drosophila S2R+ cells", "knock-down reagent": "long dsRNA against Drosophila genes, about 0.25 µg dsRNA per well, roughly 10,000 cells", "duration": "5 days of knock-down before the calcium assay", "treatment": "thapsigargin (SERCA pump blocker) to empty calcium stores; entry signal taken 4 min after adding it", "measured": "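Per-well fluo-4 fluorescence in two replicates, unnormalised, measured in resting cells and 4 min after store depletion by the SERCA blocker thapsigargin; ratio of the two present in few wells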", "direction": "calcium entry signal: higher = stronger calcium signal after store depletion; resting calcium signal: higher = higher resting calcium signal", "units": "calcium entry signal in fluorescence units; resting calcium signal in fluorescence units", "hit rule": "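Called when the plate z-score of the entry-to-rest ratio, mean of duplicates, falls below −3; wells with low overall dye signal (Fmax z below −2) or more than five off-targets excluded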", "meaning of the calls": "active = strongly reduced calcium entry; inactive = no strong reduction", "note": "The screen tested about 23,000 reagents; shown is a random part of those with a known target gene and a result. Over the whole deposit, 75 (0.33%) were called active. 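Raw plate signals without normalisation; calls rest on plate z-scores that were not deposited; ratio present for only 364 wells.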 Names joined by + are all predicted targets of the reagent. Not given: the dose of the treatment."}
{"target": "RpL37-1", "DRSC id": "DRSC20149", "calcium entry signal, replicate 1": 3.91e7, "calcium entry signal, replicate 2": 4.33e7, "resting calcium signal, replicate 1": 2.04e7, "resting calcium signal, replicate 2": 1.94e7, "call": "inactive"}
{"target": "RpL37-1", "DRSC id": "DRSC21646", "calcium entry signal, replicate 1": 1.31e7, "calcium entry signal, replicate 2": 1.80e7, "resting calcium signal, replicate 1": 8.66e6, "resting calcium signal, replicate 2": 1.06e7, "call": "inactive"}
{"target": "CG14105", "DRSC id": "DRSC10107", "calcium entry signal, replicate 1": 2.98e7, "calcium entry signal, replicate 2": 3.76e7, "resting calcium signal, replicate 1": 1.61e7, "resting calcium signal, replicate 2": 1.86e7, "call": "inactive"}
{"target": "Pyroxd1", "DRSC id": "DRSC02098", "calcium entry signal, replicate 1": 4.47e7, "calcium entry signal, replicate 2": 4.42e7, "resting calcium signal, replicate 1": 2.25e7, "resting calcium signal, replicate 2": 1.91e7, "call": "inactive"}
{"target": "Br140", "DRSC id": "DRSC06755", "calcium entry signal, replicate 1": 2.59e7, "resting calcium signal, replicate 1": 1.50e7, "call": "inactive"}
{"target": "CG12105", "DRSC id": "DRSC08255", "calcium entry signal, replicate 1": 3.24e7, "calcium entry signal, replicate 2": 2.71e7, "resting calcium signal, replicate 1": 1.50e7, "resting calcium signal, replicate 2": 1.33e7, "call": "inactive"}
{"target": "Sgp", "DRSC id": "DRSC02195", "calcium entry signal, replicate 1": 4.80e7, "resting calcium signal, replicate 1": 2.27e7, "call": "inactive"}
{"target": "Neb-cGP", "DRSC id": "DRSC17991", "calcium entry signal, replicate 1": 2.67e7, "calcium entry signal, replicate 2": 4.61e7, "resting calcium signal, replicate 1": 1.39e7, "resting calcium signal, replicate 2": 2.24e7, "call": "inactive"}

Reformatted: entries from further up
{"target":"Pyroxd1","DRSC id":"DRSC02098","calcium entry signal, replicate 1":4.47e7,"calcium entry signal, replicate 2":4.42e7,"resting calcium signal, replicate 1":2.25e7,"resting calcium signal, replicate 2":1.91e7,"call":"inactive"}
{"target":"Br140","DRSC id":"DRSC06755","calcium entry signal, replicate 1":2.59e7,"resting calcium signal, replicate 1":1.50e7,"call":"inactive"}
{"target":"CG12105","DRSC id":"DRSC08255","calcium entry signal, replicate 1":3.24e7,"calcium entry signal, replicate 2":2.71e7,"resting calcium signal, replicate 1":1.50e7,"resting calcium signal, replicate 2":1.33e7,"call":"inactive"}

The listing continues:
{"target": "CLS", "DRSC id": "DRSC15642", "calcium entry signal, replicate 1": 3.31e7, "calcium entry signal, replicate 2": 4.35e7, "resting calcium signal, replicate 1": 1.72e7, "resting calcium signal, replicate 2": 1.97e7, "call": "inactive"}
{"target": "CG32652 (retired record)", "DRSC id": "DRSC18942", "calcium entry signal, replicate 1": 3.02e7, "calcium entry signal, replicate 2": 5.09e7, "resting calcium signal, replicate 1": 1.46e7, "resting calcium signal, replicate 2": 2.91e7, "call": "inactive"}
{"target": "CG32652 (retired record)", "DRSC id": "DRSC22662", "calcium entry signal, replicate 1": 3.54e7, "calcium entry signal, replicate 2": 2.84e7, "resting calcium signal, replicate 1": 1.89e7, "resting calcium signal, replicate 2": 1.45e7, "call": "inactive"}
{"target": "DCP1", "DRSC id": "DRSC04091", "calcium entry signal, replicate 1": 3.83e7, "resting calcium signal, replicate 1": 1.87e7, "call": "inactive"}
{"target": "CG12851", "DRSC id": "DRSC04131", "calcium entry signal, replicate 1": 2.55e7, "calcium entry signal, replicate 2": 3.63e7, "resting calcium signal, replicate 1": 1.45e7, "resting calcium signal, replicate 2": 1.58e7, "call": "inactive"}
{"target": "CG31835 + CG42585", "DRSC id": "DRSC01412", "calcium entry signal, replicate 1": 4.40e7, "calcium entry signal, replicate 2": 3.25e7, "resting calcium signal, replicate 1": 2.19e7, "resting calcium signal, replicate 2": 1.56e7, "call": "inactive"}
{"target": "CR32821 + CR43381 + CR43377 + 1 more", "DRSC id": "DRSC22544", "calcium entry signal, replicate 1": 2.97e7, "calcium entry signal, replicate 2": 3.38e7, "resting calcium signal, replicate 1": 1.49e7, "resting calcium signal, replicate 2": 1.44e7, "call": "inactive"}
{"target": "Or85b", "DRSC id": "DRSC16765", "calcium entry signal, replicate 1": 3.02e7, "calcium entry signal, replicate 2": 2.94e7, "resting calcium signal, replicate 1": 1.30e7, "resting calcium signal, replicate 2": 1.31e7, "call": "inactive"}
{"target": "CG12914", "DRSC id": "DRSC06229", "calcium entry signal, replicate 1": 3.19e7, "calcium entry signal, replicate 2": 3.68e7, "resting calcium signal, replicate 1": 1.48e7, "resting calcium signal, replicate 2": 1.72e7, "call": "inactive"}
{"target": "CG7848", "DRSC id": "DRSC07050", "calcium entry signal, replicate 1": 5.22e7, "calcium entry signal, replicate 2": 7.18e7, "resting calcium signal, replicate 1": 2.24e7, "resting calcium signal, replicate 2": 3.30e7, "call": "inactive"}
{"target": "CG9107", "DRSC id": "DRSC03138", "calcium entry signal, replicate 1": 3.15e7, "resting calcium signal, replicate 1": 1.83e7, "call": "inactive"}
{"target": "CG31663", "DRSC id": "DRSC00078", "calcium entry signal, replicate 1": 3.71e7, "calcium entry signal, replicate 2": 3.96e7, "resting calcium signal, replicate 1": 1.99e7, "resting calcium signal, replicate 2": 1.91e7, "call": "inactive"}
{"target": "CG31663", "DRSC id": "DRSC00389", "calcium entry signal, replicate 1": 5.09e7, "resting calcium signal, replicate 1": 2.63e7, "call": "inactive"}
{"target": "CG31663", "DRSC id": "DRSC00390", "calcium entry signal, replicate 1": 3.84e7, "calcium entry signal, replicate 2": 2.66e7, "resting calcium signal, replicate 1": 1.61e7, "resting calcium signal, replicate 2": 1.40e7, "call": "inactive"}
{"target": "CG31663", "DRSC id": "DRSC00393", "calcium entry signal, replicate 1": 3.62e7, "calcium entry signal, replicate 2": 3.49e7, "resting calcium signal, replicate 1": 1.74e7, "resting calcium signal, replicate 2": 1.55e7, "call": "inactive"}
